Data reported in PubChem BioAssay AID2417 (National Center for Advancing Translational Sciences (NCATS), 2010).
The whole screen tested about 140,000 compounds, of which about 4,300 (3.1%) were called active. This list was built around the results that the source calls inconclusive (neither active nor inactive); the mix of calls is not that of the screen.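 How the source made its calls: active means readout at or below -70, meaning at least 70% loss of cells showing the perinucleolar compartment, a nuclear body marking cancer cells; inconclusive means readout between -30 and a set limit; inactive means the rest.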

Test: High Content Assay for Compounds that inhibit the Assembly of the Perinucleolar Compartment;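 further: plate controls were DMSO wells for no effect and camptothecin positive control wells for full effect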
Settings: PC3M PTB-GFP, PNC prevalence imaging, 16 h; at 10 µM; stronger effect = lower value
Procedure, shortened: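 Compounds are pinned in duplicate onto adhered PC3M cells stably expressing GFP-tagged PTB and incubated 16 h at 37 C. Cells are then fixed, nuclei stained with Hoechst, and PNC-positive cells counted.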

SMILES	activity change (PNC), negative = inhibition
Cc1ccc(/C=C/C(=O)N2CCCN(C(=O)/C=C/c3ccc(C)cc3)CC2)cc1	inconclusive: -48.2%
Cc1csc(Sc2nc3c(c(=O)[nH]c(=O)n3C)n2CCCc2ccccc2)n1	inconclusive: -69.3%
Cc1ccc(/C(N)=N/OC(=O)c2cccs2)cc1	inactive: -1.24%
O=C(/C=N/O)NCCCN1CCCCCC1	inconclusive: -32.2%
O=C(NCCc1ccccc1)C1CCN(S(=O)(=O)c2cccs2)CC1	inconclusive: -33.7%
COc1ccc(OC)c(C(=O)CSc2nc3ccccc3n2CC(=O)NC(C)(C)C)c1	inconclusive: -34.8%
CCOC(=O)CCC(NC(=O)c1ccc(NCN2C(=O)c3ccccc3C2=O)cc1)C(=O)OCC (stereo not given)	inconclusive: -36.2%
O=C(NC1CCCc2ccccc21)C1CCN(c2nnc(-n3cccc3)s2)CC1 (stereo not given)	inconclusive: -45.4%
CCN(C(=O)CSc1nc2cc(C(=O)OC)ccc2c(=O)n1Cc1ccco1)c1cccc(C)c1	inconclusive: -56.6%
Cn1c(-c2ccccc2)cnc1NCc1cc2c(cc1[N+](=O)[O-])OCO2	inactive: 14.1%
CCCCC(=O)NS(=O)(=O)c1ccc(NS(C)(=O)=O)cc1	inconclusive: -31.4%
Cc1cc(NC(=O)CSc2nc(-c3ccco3)cc(C(F)(F)F)n2)no1	active: -116%
Cc1ccc(C)c(NC(=O)Cn2nc(C)c3ccccc3c2=O)c1	inconclusive: -39.8%
CC1CCN(c2c(NCC3CCC(C(=O)Nc4ccccn4)CC3)c(=O)c2=O)CC1 (stereo not given)	active: -119%
O=C(NCCc1ccccc1)c1ccccc1NS(=O)(=O)N1CCCC1	inconclusive: -69.3%
COc1ccccc1CNC(=O)C[n+]1ccccc1	inactive: 6.07%
CCCn1c(SC(C(=O)Nc2cc(C)ccc2OC)c2ccccc2)nc2ccccc2c1=O (stereo not given)	inconclusive: -49.3%
Cn1nnnc1SCC(=O)Nc1ccc(Br)cc1Cl	active: -100%
Clc1ccc2nc(N3CCCCC3)[nH]c2c1	inconclusive: -64.4%
CN(C)c1ccc(-c2nnc(-c3ccc(S(=O)(=O)C(F)F)cc3)o2)cc1	inconclusive: -74.3%
O=C(NCc1ccco1)c1nn(-c2ccccc2)c(=O)c2ccccc12	inconclusive: -33%
NC(=O)c1c(NC(=O)Cc2cccs2)sc2c1CCC2	inconclusive: -39.6%
CC(=O)c1cccc(NC(=O)COc2ccc(S(=O)(=O)N3CCCCC3)cc2)c1	inconclusive: -68.6%

SMILES	activity change (PNC), negative = inhibition
Cc1ccnc(NC(=O)c2cc(S(=O)(=O)N3CCCCC3)ccc2Cl)c1	inactive: 9.8%
CCOC(=O)Nc1ccc(C)cc1C	inactive: 24.9%
CCOc1cc(/C=N\NC(=O)c2ccc(NC(=O)C(C)(C)C)cc2)ccc1OC(=O)c1cccc(C)c1	inconclusive: -76.2%
COc1ccc(-c2nnc(SCC(=O)Nc3nc4ccccc4s3)n2C)cc1	inconclusive: -39.7%
CC(C)CNC(=O)COC(=O)/C=C/c1ccccc1[N+](=O)[O-]	inconclusive: -56.9%
Cc1cnc(C(=O)OCC(=O)N2c3ccccc3NC(=O)C2(C)C)cn1	inconclusive: -46.8%
Cc1cnc(C(=O)Nc2ccc(-n3cnnn3)cc2)cn1	inactive: 38%
O=C(COC(=O)c1cc(=O)c2ccccc2o1)Nc1ccc2ccccc2c1	inconclusive: -31.9%
O=S(=O)(Nc1nccs1)c1ccc(Cl)cc1	inactive: 26.5%
CSc1cccc(NC(=O)C2CCCN2S(=O)(=O)c2ccc3c(c2)CCC(=O)N3)c1 (stereo not given)	inconclusive: -34.8%
NC(=O)C1CCN(C(=O)CN2CCc3ccccc32)CC1	inconclusive: -61.4%
O=S(=O)(Nc1nc2ccccc2nc1NCc1ccco1)c1cccs1	inactive: 17.9%
CC(C)(C)N(NC(=O)OCc1ccccc1)C(=O)c1ccccc1	active: -80.4%
O=C(Cn1ccc(C(F)(F)F)n1)Nc1ccc(S(=O)(=O)NCc2ccco2)cc1	inconclusive: -33.8%
COc1ccc(C=Nc2cccc3c(=O)[nH][nH]c(=O)c23)c2ccccc12	inconclusive: -34.5%
Cn1ncc(Br)c1C(=O)Nc1ccc(Br)cn1	inconclusive: -32.3%
O=[N+]([O-])c1ccc2c(c1)C(N1CCOCC1)/C(=C/COc1ccc(Cl)cc1Cl)O2 (stereo not given)	inactive: -21.4%
O=C(COc1cccc(Br)c1)NN=C1c2ccccc2-c2ccccc21	active: -119%
Cc1ccc(N2C(=O)NC(NC(=O)c3ccc(Cl)cc3)(C(F)(F)F)C2=O)cc1 (stereo not given)	inconclusive: -50.1%
Cc1nc2c(C(=O)NCCc3ccccc3)c[nH]n2c(=O)c1Cl	inconclusive: -44.7%
Cc1nc2ccc(F)cc2cc1C(=O)Nc1ccc(Cl)c(Cl)c1	inconclusive: -40.2%
O=C(c1ccco1)c1cn(CC(=O)N2CCCCC2)c2ccccc12	inactive: -8.2%
COc1cc(C)c(S(=O)(=O)Nc2ccccc2F)cc1C	inconclusive: -55.9%

SMILES	activity change (PNC), negative = inhibition
COc1ccc(N2CSC3=C(C#N)C(c4cc(OC)ccc4OC)CC(=O)N3C2)c(OC)c1 (stereo not given)	inactive: 0.507%
CS(=O)(=O)NCc1ccc(C(=O)NC2CCCCC2)cc1	inconclusive: -69.1%
Cc1nccn1CCCN1C(=O)OC2(CCCCC2)C1(C)O (stereo not given)	inconclusive: -50.8%
COc1ccc2c(Cl)c(C(=O)NCC3CCCO3)sc2c1Cl (stereo not given)	inactive: 6.5%
Cc1cc(NC(=O)CSc2nnnn2Cc2ccccc2)no1	inactive: -14.5%
COc1cc(/C=N/n2c(-c3ccc4c(c3)NC(=O)CO4)csc2=Nc2cccc(C)c2)ccc1O	inconclusive: -68.2%
O=C1NC(c2ccccn2)Nc2sc3c(c21)CCC3 (stereo not given)	inactive: 8.7%
Cc1cccc(NC(=O)C2CCCN(C(=O)Nc3ccccc3)C2)c1C (stereo not given)	inconclusive: -33.8%
CCc1ccccc1NC(=O)CN(C)C(=O)COc1ccc(C)nc1[N+](=O)[O-]	inactive: -8.07%
COc1ccccc1C1CC(=O)Nc2cc3c(cc21)OCCO3 (stereo not given)	active: -101%
O=C(Nc1nc2nccc(-c3ccccc3)n2n1)c1ccc(F)cc1	inconclusive: -45.5%
COc1ccc([N+](=O)[O-])cc1NC(=O)CCN1CCN(c2ccccc2OC)CC1	inconclusive: -40.5%
Clc1ccc(-c2csc(NNC3=NCCCCC3)n2)cc1	inactive: 15.9%
COc1ccc(Cl)cc1NC(=O)c1nc2nc(C)cc(C(F)F)n2n1	inactive: 22.6%
Cc1ccc2c(C)[nH]c(=O)cc2c1	inconclusive: -54.6%
O=C(Nc1nonc1NC(=O)C1CCCCC1)C1CCCCC1	inconclusive: -64.8%
CS(=O)(=O)N(CC(=O)Nc1cccc(F)c1)c1cccc([N+](=O)[O-])c1	inconclusive: -50.8%
Cc1cc(-c2nnc3n2CCCCC3)c(C)n1-c1ccccc1	inconclusive: -34.1%
COc1ccc(NC(=O)C2CCN(c3nc(C)nc4c3CCC4)CC2)cc1	inconclusive: -42.8%
Cc1nc(Cc2nnc(SCc3nc(N)nc(Nc4ccccc4C)n3)o2)cs1	inactive: 8.03%
COc1ccc(C(NC(=O)/C=C/c2ccco2)c2ccc(OC)c(OC)c2)cc1 (stereo not given)	inactive: 0.997%
O=C(/C=C/c1ccccn1)c1ccc(Br)cc1O	inconclusive: -52%
CN(C)S(=O)(=O)c1ccc(C(=O)Nc2ccnn2C2CCCCC2)cc1	inconclusive: -62.2%

SMILES	activity change (PNC), negative = inhibition
CCOC(=O)Cn1c(=O)c2c(nc(Br)n2CC(=O)OCC)n(C)c1=O	inconclusive: -50.7%
O=C(CCCC(=O)N(CC(=O)NC1CCCCC1)Cc1ccc2c(c1)OCO2)Nc1ccccn1	inconclusive: -53.5%
O=C(CN1CCSCC1)N/N=C/c1ccc(F)c(F)c1	active: -113%
CCC(=O)NNc1ncnc2ccccc12	inconclusive: -30%
COc1cccc(/C=N/NC(=O)c2cc3c(OC)cccc3[nH]2)c1O	inconclusive: -44.1%
CCn1nc(C)c(NC(=O)CSc2nnc(-c3ccco3)n2C)c1C	inactive: -2.95%
CN(C(=O)CSc1nc2c(c(=O)[nH]1)CCCC2)C1CCCCC1	inconclusive: -67.9%
CCOC(=O)C(NC(=O)c1ccc(OC)cc1)(Nc1cc(C)on1)C(F)(F)F (stereo not given)	inconclusive: -62.9%
COc1ccc(NC(C)C(=O)N/N=C/c2ccccc2OCc2cccc(Br)c2)cc1 (stereo not given)	inconclusive: -42.5%
CCOc1ccccc1N(CC(=O)N1CCOCC1)S(=O)(=O)c1ccc(SC)cc1	inactive: -8.37%
CCOC(=O)N1CCC(NC(=O)Cn2nc(Cc3ccncc3)c3ccccc3c2=O)CC1	active: -106%
CC(c1ccccc1)n1cc(C(=O)NCC2CCCO2)nn1 (stereo not given)	active: -100%
Cc1cc(C2C(C#N)=C(N)Oc3n[nH]c(C)c32)c(C)s1 (stereo not given)	inconclusive: -61.6%
Cc1ccc(C(=O)N2CCN(c3ccc(C(F)(F)F)cn3)CC2)c(C)c1	inconclusive: -49.2%
O=C1OC(/C=C/c2ccccc2)=NC/1=C/C=C/c1ccccc1	inconclusive: -34.4%
CCC(CC)NC(=O)CON=C1c2ccccc2-c2ccccc21	active: -81.2%
Cc1ccccc1-n1c(=O)cc(N2CCc3ccccc32)[nH]c1=O	active: -108%
CC1(C)CC(=O)C2=C(C1)N(N1CCOCC1)C(N)=C(C#N)C2c1cccnc1 (stereo not given)	inconclusive: -41.9%
COc1ccc(CC(=O)NCc2cccs2)cc1	inactive: 0.0439%
Cc1ccc(C(=O)Nc2nc(C)c(C(=O)Nc3ccc4c(c3)CCC4)s2)cc1	active: -88.9%
CC1(C(=O)N(CC(=O)NC2CCCC2)Cc2ccco2)CC(=O)N=C2C=CC=CN21 (stereo not given)	inactive: 11.1%

By substructure: the entries above with a tert-butyl group (3)
SMILES	activity change (PNC), negative = inhibition
COc1ccc(OC)c(C(=O)CSc2nc3ccccc3n2CC(=O)NC(C)(C)C)c1	inconclusive: -34.8%
CCOc1cc(/C=N\NC(=O)c2ccc(NC(=O)C(C)(C)C)cc2)ccc1OC(=O)c1cccc(C)c1	inconclusive: -76.2%
CC(C)(C)N(NC(=O)OCc1ccccc1)C(=O)c1ccccc1	active: -80.4%
